Target: T1, β2 adrenergic receptors (Canis lupus familiaris, UniProt P54833)
T1 construct: Canine lung membranes (10 μg protein/100 ul) were incubated with ^125ICYP; from tissue; host or cells: mongrel dog lung membranes
Test: Beta-2 binding, 125iodocyanopindolol (ICYP), canine lung membranes
Set-up: species or system canine (mongrel dogs)
Details: check for β1 sites

The chains behind the UniProt entries cited, without tags or fusion partners.
UniProt P54833, whole entry: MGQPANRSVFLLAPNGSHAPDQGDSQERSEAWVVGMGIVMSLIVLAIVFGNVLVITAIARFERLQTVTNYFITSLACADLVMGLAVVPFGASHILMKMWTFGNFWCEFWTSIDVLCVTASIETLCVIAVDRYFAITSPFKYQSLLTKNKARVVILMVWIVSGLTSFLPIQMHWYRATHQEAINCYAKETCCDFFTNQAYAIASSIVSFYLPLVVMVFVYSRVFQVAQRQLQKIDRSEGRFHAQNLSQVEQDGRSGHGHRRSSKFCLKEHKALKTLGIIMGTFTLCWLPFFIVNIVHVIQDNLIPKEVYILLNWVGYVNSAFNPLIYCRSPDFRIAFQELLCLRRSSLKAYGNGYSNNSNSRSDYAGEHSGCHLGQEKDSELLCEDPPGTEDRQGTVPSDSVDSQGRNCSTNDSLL

## CC(C)NCC(O)COc1ccc(CC(N)=O)cc1 (stereo not shown) [Atenolol, atenolol]
  displacement of ICYP from pulmonary membranes: largely ineffective in displacing ICYP

From US7232837B2, “Stereoisomers with high affinity for adrenergic receptors” (McNeil-PPC, Inc., priority 1999, dated 2007)
